# Experimental data reported in the supplement of paper PMC6411743.
# The chains behind the UniProt entries cited, without tags or fusion partners. Where a name states a change or a piece, a line headed by the entry shows the natural chain unless it says otherwise.
# UniProt B0I1T2: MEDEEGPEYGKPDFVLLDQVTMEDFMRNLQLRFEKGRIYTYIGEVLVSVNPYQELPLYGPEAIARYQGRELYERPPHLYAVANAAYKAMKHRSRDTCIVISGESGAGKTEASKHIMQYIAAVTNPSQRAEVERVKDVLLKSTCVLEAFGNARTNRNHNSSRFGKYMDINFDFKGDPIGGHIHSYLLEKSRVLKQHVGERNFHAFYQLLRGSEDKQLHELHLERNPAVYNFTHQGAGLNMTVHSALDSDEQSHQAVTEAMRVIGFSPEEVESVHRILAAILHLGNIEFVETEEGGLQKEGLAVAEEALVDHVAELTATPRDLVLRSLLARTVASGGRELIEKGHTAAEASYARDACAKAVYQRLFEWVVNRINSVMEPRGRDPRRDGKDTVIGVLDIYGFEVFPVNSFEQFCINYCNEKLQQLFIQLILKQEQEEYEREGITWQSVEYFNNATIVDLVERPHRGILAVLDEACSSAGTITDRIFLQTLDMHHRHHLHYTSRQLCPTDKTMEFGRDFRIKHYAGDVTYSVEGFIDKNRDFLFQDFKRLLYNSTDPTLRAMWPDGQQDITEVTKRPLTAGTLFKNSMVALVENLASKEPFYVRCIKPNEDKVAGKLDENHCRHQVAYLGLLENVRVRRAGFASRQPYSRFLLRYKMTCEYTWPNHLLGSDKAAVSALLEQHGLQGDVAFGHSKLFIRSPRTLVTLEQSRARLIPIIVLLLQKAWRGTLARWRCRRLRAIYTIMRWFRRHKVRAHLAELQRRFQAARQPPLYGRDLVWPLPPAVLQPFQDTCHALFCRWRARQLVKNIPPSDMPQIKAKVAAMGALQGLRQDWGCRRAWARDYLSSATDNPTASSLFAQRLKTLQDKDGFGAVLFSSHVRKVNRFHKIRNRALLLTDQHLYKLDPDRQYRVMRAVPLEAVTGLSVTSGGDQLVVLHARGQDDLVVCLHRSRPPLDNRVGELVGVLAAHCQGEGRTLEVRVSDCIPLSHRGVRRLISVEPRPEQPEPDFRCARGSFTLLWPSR
# UniProt Q86VP1, whole entry: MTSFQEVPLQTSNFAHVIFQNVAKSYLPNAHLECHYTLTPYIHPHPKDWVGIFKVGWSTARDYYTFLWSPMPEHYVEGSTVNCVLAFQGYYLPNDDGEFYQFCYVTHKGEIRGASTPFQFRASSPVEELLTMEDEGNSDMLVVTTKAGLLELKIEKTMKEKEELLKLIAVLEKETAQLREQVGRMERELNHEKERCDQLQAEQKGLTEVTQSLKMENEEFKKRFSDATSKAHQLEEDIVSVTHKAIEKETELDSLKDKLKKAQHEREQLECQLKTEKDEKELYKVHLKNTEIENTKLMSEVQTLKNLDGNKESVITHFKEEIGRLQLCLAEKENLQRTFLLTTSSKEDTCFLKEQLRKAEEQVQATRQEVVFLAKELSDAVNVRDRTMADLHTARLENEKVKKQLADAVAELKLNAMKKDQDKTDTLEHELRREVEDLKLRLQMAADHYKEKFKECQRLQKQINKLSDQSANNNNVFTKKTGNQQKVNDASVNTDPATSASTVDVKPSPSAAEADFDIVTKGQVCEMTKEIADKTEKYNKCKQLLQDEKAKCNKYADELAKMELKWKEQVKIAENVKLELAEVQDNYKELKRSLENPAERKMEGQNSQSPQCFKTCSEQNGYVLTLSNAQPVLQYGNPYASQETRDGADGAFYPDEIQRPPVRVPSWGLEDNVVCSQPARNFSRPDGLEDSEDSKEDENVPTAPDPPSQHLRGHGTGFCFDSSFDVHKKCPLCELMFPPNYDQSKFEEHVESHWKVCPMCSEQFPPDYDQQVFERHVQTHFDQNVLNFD
# UniProt P63208, whole entry: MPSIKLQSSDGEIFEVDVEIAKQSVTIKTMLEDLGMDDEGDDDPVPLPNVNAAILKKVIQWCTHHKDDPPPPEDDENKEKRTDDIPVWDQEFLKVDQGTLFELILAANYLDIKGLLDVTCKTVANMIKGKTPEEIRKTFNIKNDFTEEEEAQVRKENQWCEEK
# UniProt Q99755: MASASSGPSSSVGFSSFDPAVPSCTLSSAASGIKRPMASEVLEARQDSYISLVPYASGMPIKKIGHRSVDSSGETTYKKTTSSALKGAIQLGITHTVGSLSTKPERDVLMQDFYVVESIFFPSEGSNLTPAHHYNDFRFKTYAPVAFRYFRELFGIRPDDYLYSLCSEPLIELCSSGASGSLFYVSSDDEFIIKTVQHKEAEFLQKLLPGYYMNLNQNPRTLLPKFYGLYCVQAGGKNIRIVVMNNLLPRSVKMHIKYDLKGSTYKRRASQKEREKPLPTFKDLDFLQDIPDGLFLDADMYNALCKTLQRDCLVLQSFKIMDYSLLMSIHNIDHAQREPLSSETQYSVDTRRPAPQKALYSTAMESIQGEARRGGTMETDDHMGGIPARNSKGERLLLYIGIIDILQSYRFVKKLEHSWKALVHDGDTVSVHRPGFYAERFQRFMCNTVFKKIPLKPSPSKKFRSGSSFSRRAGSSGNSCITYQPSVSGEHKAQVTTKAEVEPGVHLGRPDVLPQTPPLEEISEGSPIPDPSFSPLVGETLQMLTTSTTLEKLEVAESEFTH
# UniProt O75718: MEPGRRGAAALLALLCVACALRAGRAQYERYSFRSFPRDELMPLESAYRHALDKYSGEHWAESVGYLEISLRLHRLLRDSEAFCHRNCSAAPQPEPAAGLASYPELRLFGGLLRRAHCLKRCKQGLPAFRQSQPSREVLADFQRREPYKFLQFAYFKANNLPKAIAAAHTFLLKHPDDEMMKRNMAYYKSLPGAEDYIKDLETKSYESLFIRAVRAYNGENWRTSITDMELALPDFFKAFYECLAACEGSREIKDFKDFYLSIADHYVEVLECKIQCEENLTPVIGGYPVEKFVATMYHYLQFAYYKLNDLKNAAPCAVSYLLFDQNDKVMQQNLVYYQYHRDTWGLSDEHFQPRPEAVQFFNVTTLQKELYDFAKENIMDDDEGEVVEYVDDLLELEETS
# UniProt A6QL63: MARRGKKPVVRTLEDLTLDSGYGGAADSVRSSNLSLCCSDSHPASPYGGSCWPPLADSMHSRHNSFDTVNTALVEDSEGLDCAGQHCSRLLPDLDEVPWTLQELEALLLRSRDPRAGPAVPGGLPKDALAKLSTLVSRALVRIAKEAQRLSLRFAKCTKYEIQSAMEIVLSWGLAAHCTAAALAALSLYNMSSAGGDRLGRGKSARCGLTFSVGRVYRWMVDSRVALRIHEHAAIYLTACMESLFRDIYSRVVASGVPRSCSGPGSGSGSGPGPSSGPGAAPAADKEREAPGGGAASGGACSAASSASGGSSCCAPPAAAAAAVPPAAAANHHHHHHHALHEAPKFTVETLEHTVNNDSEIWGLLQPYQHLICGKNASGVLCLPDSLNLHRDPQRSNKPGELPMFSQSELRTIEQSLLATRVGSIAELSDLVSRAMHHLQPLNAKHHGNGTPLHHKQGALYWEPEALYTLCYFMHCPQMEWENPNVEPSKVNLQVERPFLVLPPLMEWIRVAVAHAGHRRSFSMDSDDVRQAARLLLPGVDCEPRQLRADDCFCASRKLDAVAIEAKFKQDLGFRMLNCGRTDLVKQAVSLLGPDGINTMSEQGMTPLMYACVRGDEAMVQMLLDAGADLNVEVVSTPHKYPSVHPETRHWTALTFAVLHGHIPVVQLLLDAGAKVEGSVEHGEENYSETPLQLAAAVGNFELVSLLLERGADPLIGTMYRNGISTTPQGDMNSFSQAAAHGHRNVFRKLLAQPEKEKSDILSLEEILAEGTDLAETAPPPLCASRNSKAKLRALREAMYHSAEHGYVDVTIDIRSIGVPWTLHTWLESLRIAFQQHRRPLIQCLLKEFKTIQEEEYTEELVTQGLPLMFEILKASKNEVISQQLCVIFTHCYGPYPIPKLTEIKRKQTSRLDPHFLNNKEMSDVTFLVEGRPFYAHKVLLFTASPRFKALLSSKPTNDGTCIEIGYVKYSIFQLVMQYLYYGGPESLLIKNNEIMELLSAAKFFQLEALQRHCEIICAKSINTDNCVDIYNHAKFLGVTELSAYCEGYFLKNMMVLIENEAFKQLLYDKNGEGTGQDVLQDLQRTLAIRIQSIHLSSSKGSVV
# UniProt Q8N4C6: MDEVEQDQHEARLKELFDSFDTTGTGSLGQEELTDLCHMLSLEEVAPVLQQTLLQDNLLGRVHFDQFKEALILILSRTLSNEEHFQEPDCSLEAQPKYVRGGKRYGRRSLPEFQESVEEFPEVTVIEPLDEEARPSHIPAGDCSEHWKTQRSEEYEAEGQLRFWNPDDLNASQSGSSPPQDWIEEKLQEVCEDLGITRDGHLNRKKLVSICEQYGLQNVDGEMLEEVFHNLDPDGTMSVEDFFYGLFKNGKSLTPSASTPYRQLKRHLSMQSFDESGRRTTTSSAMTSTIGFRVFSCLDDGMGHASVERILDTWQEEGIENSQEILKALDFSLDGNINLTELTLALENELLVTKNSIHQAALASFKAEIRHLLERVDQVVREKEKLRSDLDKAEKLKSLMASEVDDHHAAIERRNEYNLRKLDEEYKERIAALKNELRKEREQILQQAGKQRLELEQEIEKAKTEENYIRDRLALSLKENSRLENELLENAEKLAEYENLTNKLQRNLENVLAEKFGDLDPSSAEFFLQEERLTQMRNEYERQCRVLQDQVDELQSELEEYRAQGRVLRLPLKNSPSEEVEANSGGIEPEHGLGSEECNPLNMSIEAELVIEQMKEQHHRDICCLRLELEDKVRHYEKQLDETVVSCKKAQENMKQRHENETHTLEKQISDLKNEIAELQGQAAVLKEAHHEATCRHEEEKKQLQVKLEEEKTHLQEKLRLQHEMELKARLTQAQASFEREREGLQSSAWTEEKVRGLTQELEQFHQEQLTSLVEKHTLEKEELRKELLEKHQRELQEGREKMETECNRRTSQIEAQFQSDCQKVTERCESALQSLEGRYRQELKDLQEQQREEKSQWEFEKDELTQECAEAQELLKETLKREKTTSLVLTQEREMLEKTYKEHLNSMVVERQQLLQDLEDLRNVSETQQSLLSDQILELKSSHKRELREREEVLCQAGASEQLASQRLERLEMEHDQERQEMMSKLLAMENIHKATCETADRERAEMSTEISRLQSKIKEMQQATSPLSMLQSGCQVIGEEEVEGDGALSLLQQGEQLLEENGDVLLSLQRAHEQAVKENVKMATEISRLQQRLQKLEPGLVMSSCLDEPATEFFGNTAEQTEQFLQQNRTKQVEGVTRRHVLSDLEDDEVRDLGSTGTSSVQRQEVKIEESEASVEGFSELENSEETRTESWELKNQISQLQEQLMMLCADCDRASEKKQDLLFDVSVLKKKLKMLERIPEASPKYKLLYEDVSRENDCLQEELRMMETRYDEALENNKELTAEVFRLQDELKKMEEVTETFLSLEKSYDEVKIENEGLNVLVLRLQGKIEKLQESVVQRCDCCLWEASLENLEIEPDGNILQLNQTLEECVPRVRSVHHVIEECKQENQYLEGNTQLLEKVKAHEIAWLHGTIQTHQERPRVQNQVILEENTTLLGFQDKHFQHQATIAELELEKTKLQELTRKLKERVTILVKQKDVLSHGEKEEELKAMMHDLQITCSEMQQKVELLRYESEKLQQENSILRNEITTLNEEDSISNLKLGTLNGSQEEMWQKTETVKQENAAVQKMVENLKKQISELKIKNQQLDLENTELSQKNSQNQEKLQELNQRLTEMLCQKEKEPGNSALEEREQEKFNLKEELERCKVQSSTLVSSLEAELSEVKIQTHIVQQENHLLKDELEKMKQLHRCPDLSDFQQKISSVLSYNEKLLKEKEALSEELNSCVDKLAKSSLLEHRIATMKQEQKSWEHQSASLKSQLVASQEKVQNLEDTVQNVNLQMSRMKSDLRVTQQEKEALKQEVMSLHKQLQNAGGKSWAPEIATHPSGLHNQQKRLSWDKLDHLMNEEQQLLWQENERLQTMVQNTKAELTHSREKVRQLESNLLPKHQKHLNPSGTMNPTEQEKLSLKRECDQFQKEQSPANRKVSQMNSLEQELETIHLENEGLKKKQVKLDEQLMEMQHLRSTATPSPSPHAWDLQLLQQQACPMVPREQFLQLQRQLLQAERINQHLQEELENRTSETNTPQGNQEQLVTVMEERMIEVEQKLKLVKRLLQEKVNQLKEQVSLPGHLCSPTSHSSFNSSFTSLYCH
# UniProt Q86WP2: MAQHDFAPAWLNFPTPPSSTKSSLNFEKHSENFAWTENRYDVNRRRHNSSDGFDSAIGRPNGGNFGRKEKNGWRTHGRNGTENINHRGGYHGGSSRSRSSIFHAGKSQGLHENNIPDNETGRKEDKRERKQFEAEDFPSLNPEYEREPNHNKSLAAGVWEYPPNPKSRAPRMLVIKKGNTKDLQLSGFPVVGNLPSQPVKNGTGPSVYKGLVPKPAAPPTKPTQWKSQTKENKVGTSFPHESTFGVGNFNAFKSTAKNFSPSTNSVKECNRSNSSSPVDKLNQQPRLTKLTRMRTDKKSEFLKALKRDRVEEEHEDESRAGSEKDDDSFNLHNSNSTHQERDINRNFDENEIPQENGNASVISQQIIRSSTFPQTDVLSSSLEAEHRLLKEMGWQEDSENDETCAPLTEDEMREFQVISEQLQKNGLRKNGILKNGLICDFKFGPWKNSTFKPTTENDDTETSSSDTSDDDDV
# ± gives the standard deviation of the averaged measurements. The list shows a part of the results.
# Compound: Nc1nc2c(ncn2[C@@H]2O[C@H](COP(=O)(O)OP(=O)(O)OP(=O)(O)O)[C@@H](O)[C@H]2O)c(=O)[nH]1 [guanosine triphosphate]
# Assay: NP40-soluble protein abundance relative to vehicle (solubility fold change) (ratio); higher = more soluble protein in presence of GTP
# Procedure, shortened: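 In three independent experiments, Jurkat crude lysate made by Dounce homogenisation was treated for 10 min at room temperature and then 3 min at 37 °C with eight concentrations ranging from 0.1 to 10 mM. It was then solubilised with 0.8% NP40 plus benzonase for 60 min at 4 °C and ultracentrifuged. The supernatant was TMT-labelled for LC-MS/MS, and each value is the fold change against the detergent-processed vehicle for the same replicate, using vsn-normalised intensities.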
Target,NP40-soluble protein abundance (concentration: 0.1mM),NP40-soluble protein abundance (concentration: 0.5mM),NP40-soluble protein abundance (concentration: 1mM),NP40-soluble protein abundance (concentration: 2mM),NP40-soluble protein abundance (concentration: 4mM),NP40-soluble protein abundance (concentration: 6mM),NP40-soluble protein abundance (concentration: 8mM),NP40-soluble protein abundance (concentration: 10mM)
MYO1G (UniProt B0I1T2),1.12 ± 0.027,1.47 ± 0.26,1.95 ± 0.34,2.5 ± 0.51,2.75 ± 0.45,2.67 ± 0.49,2.58 ± 0.3,2.35 ± 0.31
A6NKB8 and related entries (UniProt Q9H4A4),0.997 ± 0.023,1.01 ± 0.013,0.899 ± 0.017,0.915 ± 0.037,0.873 ± 0.039,0.881 ± 0.031,0.851 ± 0.059,0.829 ± 0.078
B8ZZD4 and related entries (UniProt Q86VP1),1.01 ± 0.025,0.993 ± 0.064,0.98 ± 0.012,0.985 ± 0.022,0.993 ± 0.06,0.983 ± 0.016,0.982 ± 0.026,0.952 ± 0.018
E5RJR5 and related entries (UniProt P63208),0.927 ± 0.096,0.91 ± 0.052,1.08 ± 0.16,1.06 ± 0.083,1.05 ± 0.081,1.05 ± 0.081,1.09 ± 0.11,1.13 ± 0.15
A6PW57 and related entries (UniProt Q99755),1.06 ± 0.053,1.07 ± 0.036,1.11 ± 0.03,1.16 ± 0.058,1.2 ± 0.063,1.2 ± 0.066,1.27 ± 0.083,1.19 ± 0.046
C9JP16 and related entries (UniProt O75718),0.95 ± 0.061,0.97 ± 0.013,1.09 ± 0.024,1.14 ± 0.099,1.22 ± 0.078,1.211 ± 0.0066,1.29 ± 0.065,1.26 ± 0.17
C9J4K0 and related entries (UniProt Q9BVC5),0.976 ± 0.098,0.926 ± 0.081,1.01 ± 0.1,1 ± 0.08,1.09 ± 0.097,1.04 ± 0.072,1.12 ± 0.086,1.08 ± 0.044
C9JRJ5 and related entries (UniProt Q9UGP4),1.01 ± 0.054,1 ± 0.021,1 ± 0.043,0.955 ± 0.025,0.963 ± 0.031,0.962 ± 0.021,1.01 ± 0.038,0.965 ± 0.034
C9J473 (UniProt P39210),1.1 ± 0.2,1.03 ± 0.16,0.929 ± 0.16,0.928 ± 0.25,0.983 ± 0.16,0.903 ± 0.23,0.875 ± 0.17,0.873 ± 0.26
UniProt A6QL63 and related entries,1.21 ± 0.15,1.11 ± 0.13,1.12 ± 0.051,1.07 ± 0.075,1.07 ± 0.19,1.044 ± 0.0032,1.06 ± 0.028,1.01 ± 0.16
C9J066 and related entries (UniProt Q8N4C6),1.06 ± 0.053,0.986 ± 0.032,1.04 ± 0.028,1.02 ± 0.044,1.022 ± 0.01,1.12 ± 0.087,1.03 ± 0.19,1.11 ± 0.18
B1AKL4 and related entries (UniProt Q9NRA8),1.07 ± 0.031,1.02 ± 0.02,1.11 ± 0.036,1.07 ± 0.043,1.12 ± 0.04,1.09 ± 0.042,1.15 ± 0.063,1.14 ± 0.072
B4E0T2 and related entries (UniProt P50542),0.987 ± 0.045,0.955 ± 0.065,1.01 ± 0.077,0.987 ± 0.083,0.949 ± 0.056,0.978 ± 0.054,0.976 ± 0.034,0.913 ± 0.012
B4DKD5 and related entries (UniProt Q7Z6M4),1.1 ± 0.28,1.16 ± 0.23,1.1 ± 0.13,1.1 ± 0.22,1.1 ± 0.25,1.16 ± 0.19,1.07 ± 0.22,1.19 ± 0.3
E7EMM4 and related entries (UniProt Q13510),0.994 ± 0.015,0.951 ± 0.032,0.9658 ± 0.0049,0.947 ± 0.076,0.974 ± 0.048,0.936 ± 0.056,0.955 ± 0.048,0.959 ± 0.032
E5RJF8 and related entries (UniProt O15182),0.945 ± 0.051,0.965 ± 0.05,1 ± 0.039,0.949 ± 0.063,0.943 ± 0.015,1 ± 0.025,0.993 ± 0.077,0.965 ± 0.019
A9IYQ1 and related entries (UniProt Q9NTI5),1.01 ± 0.015,1.03 ± 0.024,1.01 ± 0.015,0.995 ± 0.036,1.01 ± 0.035,1.01 ± 0.052,1.02 ± 0.08,0.992 ± 0.041
C9JWC4 and related entries (UniProt Q8NCD3),1.07 ± 0.053,1.12 ± 0.041,1.15 ± 0.069,1.18 ± 0.025,1.19 ± 0.15,1.18 ± 0.067,1.2 ± 0.055,1.13 ± 0.081
C9J5C3 and related entries (UniProt Q9BUL8),0.918 ± 0.04,0.918 ± 0.073,0.933 ± 0.033,0.905 ± 0.069,0.908 ± 0.075,0.906 ± 0.071,0.901 ± 0.058,0.906 ± 0.067
D6RAN8 and related entries (UniProt Q9P0M9),1.09 ± 0.38,1.2 ± 0.5,1.53 ± 0.78,1.81 ± 0.82,1.91 ± 0.83,1.72 ± 0.79,1.64 ± 0.79,1.58 ± 0.84
D4PHA4 and related entries (UniProt Q86WP2),0.97 ± 0.075,1.06 ± 0.12,1.12 ± 0.11,1.1 ± 0.09,1.16 ± 0.15,1.22 ± 0.16,1.34 ± 0.19,1.36 ± 0.099
B8ZZU6 and related entries (UniProt P15336),0.868 ± 0.086,0.907 ± 0.044,0.969 ± 0.14,0.943 ± 0.078,0.899 ± 0.011,0.899 ± 0.045,0.906 ± 0.1,0.955 ± 0.078
E2QRF9 and related entries (UniProt O75496),0.934 ± 0.055,0.945 ± 0.053,0.974 ± 0.054,0.952 ± 0.065,0.949 ± 0.079,0.949 ± 0.042,0.986 ± 0.06,1.01 ± 0.069
C9JF66 and related entries (UniProt Q6PIZ9),1.15 ± 0.2,1.079 ± 0.0057,1.072 ± 0.0092,1.14 ± 0.13,1.15 ± 0.14,1.09 ± 0.025,1.15 ± 0.042,1.14 ± 0.19
C9J3F5 and related entries (UniProt O95772),1.03 ± 0.13,0.967 ± 0.087,0.974 ± 0.034,1.02 ± 0.13,0.969 ± 0.073,1.03 ± 0.18,0.933 ± 0.064,0.896 ± 0.082
D6RG09 and related entries (UniProt Q9GZR1),1.061 ± 0.0062,1.04 ± 0.048,1.15 ± 0.057,1.02 ± 0.021,1.06 ± 0.062,1.11 ± 0.12,1.05 ± 0.075,1.09 ± 0.055

# Some of the entries above in a different format:
Target | NP40-soluble protein abundance (concentration: 0.1mM) | NP40-soluble protein abundance (concentration: 0.5mM) | NP40-soluble protein abundance (concentration: 1mM) | NP40-soluble protein abundance (concentration: 2mM) | NP40-soluble protein abundance (concentration: 4mM) | NP40-soluble protein abundance (concentration: 6mM) | NP40-soluble protein abundance (concentration: 8mM) | NP40-soluble protein abundance (concentration: 10mM)
E5RJR5 and related entries (UniProt P63208) | 0.927 ± 0.096 | 0.91 ± 0.052 | 1.08 ± 0.16 | 1.06 ± 0.083 | 1.05 ± 0.081 | 1.05 ± 0.081 | 1.09 ± 0.11 | 1.13 ± 0.15
E7EMM4 and related entries (UniProt Q13510) | 0.994 ± 0.015 | 0.951 ± 0.032 | 0.9658 ± 0.0049 | 0.947 ± 0.076 | 0.974 ± 0.048 | 0.936 ± 0.056 | 0.955 ± 0.048 | 0.959 ± 0.032
A9IYQ1 and related entries (UniProt Q9NTI5) | 1.01 ± 0.015 | 1.03 ± 0.024 | 1.01 ± 0.015 | 0.995 ± 0.036 | 1.01 ± 0.035 | 1.01 ± 0.052 | 1.02 ± 0.08 | 0.992 ± 0.041
B8ZZU6 and related entries (UniProt P15336) | 0.868 ± 0.086 | 0.907 ± 0.044 | 0.969 ± 0.14 | 0.943 ± 0.078 | 0.899 ± 0.011 | 0.899 ± 0.045 | 0.906 ± 0.1 | 0.955 ± 0.078
